The series can be described thus: CT attenuation / image contrast in Hounsfield Units.

Regarding `[Xe]` [xenon], the image contrast result was “about 60 HU” (2 atm oily solvent composition injected and diluted 10:1 by blood); “about 600 HU” (xenon in an oily solvent at a pressure of 2 atm, 90 kVp).
